Measurements from “University of Dundee, Small-Polar-MMV Screening Library” (2021), ChEMBL document CHEMBL3988442.

Protein sequences, listed by entry. Tags and fused reporters are not part of them.
UniProt P9WPC5, whole entry: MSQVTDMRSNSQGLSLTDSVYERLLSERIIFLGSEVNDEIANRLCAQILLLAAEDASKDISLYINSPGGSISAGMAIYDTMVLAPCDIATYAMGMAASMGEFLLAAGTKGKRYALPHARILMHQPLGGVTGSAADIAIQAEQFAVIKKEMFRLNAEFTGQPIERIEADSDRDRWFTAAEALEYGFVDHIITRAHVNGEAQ
UniProt P9WPC3, whole entry partner: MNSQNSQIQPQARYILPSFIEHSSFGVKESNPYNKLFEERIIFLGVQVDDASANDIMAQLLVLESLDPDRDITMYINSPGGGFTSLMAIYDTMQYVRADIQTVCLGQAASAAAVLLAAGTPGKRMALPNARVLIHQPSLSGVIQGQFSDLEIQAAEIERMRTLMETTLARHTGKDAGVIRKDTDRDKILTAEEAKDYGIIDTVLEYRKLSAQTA
UniProt P9WNZ1, whole entry: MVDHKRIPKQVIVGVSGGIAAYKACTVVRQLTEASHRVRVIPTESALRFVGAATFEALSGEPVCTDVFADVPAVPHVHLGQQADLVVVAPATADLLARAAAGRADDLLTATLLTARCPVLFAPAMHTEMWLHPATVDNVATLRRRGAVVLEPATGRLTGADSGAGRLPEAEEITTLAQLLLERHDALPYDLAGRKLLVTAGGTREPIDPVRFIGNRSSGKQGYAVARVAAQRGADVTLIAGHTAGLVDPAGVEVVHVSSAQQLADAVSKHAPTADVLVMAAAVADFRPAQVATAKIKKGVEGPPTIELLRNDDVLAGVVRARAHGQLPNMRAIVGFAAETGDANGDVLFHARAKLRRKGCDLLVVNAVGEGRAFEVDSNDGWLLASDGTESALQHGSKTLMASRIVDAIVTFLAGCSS

ClpP1P2: 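Protease assay of ClpP1P2, read by the AMC dye that it sets free. Target: ClpP1P2, Mycobacterium tuberculosis (UniProt P9WPC5 and UniProt P9WPC3). Concentration: 50 µM. Direction is inferred from only a few compounds that gave an IC50; most scored high, so higher reads as stronger inhibition. Most other retested compounds had strongly negative values. Size under these conditions: about 69,000 compounds, about 10 of them at 50% or above in at least one test.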
CoaBC: 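Coenzyme A biosynthesis protein CoaBC, Mycobacterium tuberculosis (UniProt P9WNZ1). Enzyme assay of CoaBC with a phosphate dye (Biomol Green) read at 650 nm. Tested at 30 µM. Direction is inferred from only a few compounds that gave an IC50; most scored high, so higher reads as stronger inhibition. Most strong results did not repeat in a second test. Of about 67,000 compounds tested this way, about 40 (0.06%) reached 50% or more in at least one test.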

The filed quantity is “Percent Effect” (%).
How 0% and 100% were set is not recorded. Most values in the screen are low, and negative values occur.
The compounds are a random part of those screened.

Result for COc1ccc(S(=O)(=O)NCc2cccnc2N(C)C)cc1 was ClpP1P2: -22.73%; CoaBC: -2.1%.
Result for O=C(NCc1ccoc1)NC1CCN(c2ncccn2)CC1 was ClpP1P2: -3%; CoaBC: 16.63%.
Result for CCN1CCN(C(=O)c2[nH]c3ccccc3c2Cl)[C@H]2CS(=O)(=O)C[C@H]21 was ClpP1P2: -1.127%; CoaBC: 8.068%.
Result for Cc1nn(CCn2ccnc2-c2cc3n(n2)CCCNC3)c(C)c1Cl was ClpP1P2: -19.2%; CoaBC: -33.04%.
Result for Cn1ccnc1C1(O)CCN(C(=O)Cc2ccccc2)CC1 was ClpP1P2: -9.422%; CoaBC: 12.11%.
Result for CNC(=O)[C@H]1C[C@@H]2CN(Cc3ccccc3)C[C@H]1O2 was ClpP1P2: 2.183%; CoaBC: 1.818%.
Result for COc1ccc2c(CN3CCN(Cc4cccc(F)c4)CC3)n[nH]c2c1 was ClpP1P2: -11.05%; CoaBC: 0.6098%.
Result for Cc1cnn(C2CCCN(C(=O)c3cccc(Cn4ccnc4)c3)C2)c1 (centres undefined) was ClpP1P2: 14.5%; CoaBC: 2.35%.
Result for CN1CCN2C(=O)N(c3ccccc3)C[C@H]2C1 was ClpP1P2: -6.518%; CoaBC: 8.804%.
Result for CN(CCO)C(=O)c1coc(CN2CCN(c3ccccc3F)CC2)n1 was ClpP1P2: 3.772%; CoaBC: -0.8929%.
Result for CC(C)c1noc(-c2ccc(NCC3CCCOC3)nc2)n1 (centres undefined) was ClpP1P2: -16.07%; CoaBC: 1.603%.
Result for CCC(=O)N1CCCc2c(cnn2C)C1 was ClpP1P2: 28.9%; CoaBC: -3.679%.
Result for Cc1nn(C)c(N2CCOCC2)c1CNCc1ccnn1C was ClpP1P2: -38.98%; CoaBC: 4.7%.
Result for O=C(C1CCC1)N1CCC2(COCc3cnc(-c4cccnc4)nc32)C1 (centres undefined) was ClpP1P2: -11.28%; CoaBC: 3.752%.
Result for CCOc1ccc(C2C3=C(O)OCC3=Nc3nc(SC)nc(N)c32)cc1 (centres undefined) was ClpP1P2: -30.51%; CoaBC: 5.357%.
Result for CC(c1ccc2c(c1)OCO2)N1Cc2nc(N(C)C)ncc2C1=O (centres undefined) was ClpP1P2: -16.44%; CoaBC: 1.952%.
Result for CSCC(CCO)NC(=O)Nc1ccc(C)cc1Br (centres undefined) was ClpP1P2: -1.408%; CoaBC: -3.671%.
Result for COCCN1CCc2c(cnc(-c3ccccc3)c2C(=O)O)C1 was ClpP1P2: -5.812%; CoaBC: 4.202%.
Result for CN1CCNC(Cc2ccc(-c3ccncc3)cc2)C1=O (centres undefined) was ClpP1P2: -5.799%; CoaBC: 1.46%.
Result for NC(=O)c1cnn2c(C3CCCN(C4CCOCC4)C3)ccnc12 (centres undefined) was ClpP1P2: -23.74%; CoaBC: -8.852%.
Result for Cc1noc(C)c1CN1C[C@@H](OCc2ccccn2)[C@H]2OCCC[C@H]21 was ClpP1P2: 4.763%; CoaBC: 6.516%.
Result for Cc1ccc(=O)n(Cc2csc(N(C)C3CC3)n2)n1 was ClpP1P2: 13.52%; CoaBC: 4.819%.
Result for Cc1ccc(-c2ccccc2CC2(C(=O)NC(C)C)CCCNC2)cc1 (centres undefined) was ClpP1P2: -19.56%; CoaBC: -6.78%.
Result for O=C([C@@H]1COC[C@H]2CN(C3CCCC3)C[C@H]21)N1CCCCO1 was ClpP1P2: -6.343%; CoaBC: -5.806%.
Result for CCC1C=CCN1C(=O)c1cc(COc2ccccc2OC)[nH]n1 (centres undefined) was ClpP1P2: 0.5535%; CoaBC: 0.7407%.
Result for CCN1CCCC1CNC(=O)Cc1c(C)n[nH]c1-c1ccc(F)cc1 (centres undefined) was ClpP1P2: -6.811%; CoaBC: -5.425%.
Result for Cc1noc(C)c1CN1C(=O)[C@H]2CC[C@@H]1CN(C(=O)c1cscn1)C2 was ClpP1P2: -11.98%; CoaBC: -1.022%.
Result for CC(C)NC(=O)N1Cc2nccn2CC(COc2cccnc2)C1 (centres undefined) was ClpP1P2: -12.59%; CoaBC: -9.741%.

Once more, the final 2:

| compound | ClpP1P2 | CoaBC |
|---|---|---|
| `Cc1noc(C)c1CN1C(=O)[C@H]2CC[C@@H]1CN(C(=O)c1cscn1)C2` | -11.98 | -1.022 |
| `CC(C)NC(=O)N1Cc2nccn2CC(COc2cccnc2)C1` (centres undefined) | -12.59 | -9.741 |